# Test results from the supplement of paper PMC8728848.
# Some of the results follow.
# B1: SUN4 (Saccharomyces cerevisiae), P53616 (protein)
# chain: MGSSHHHHHHSSGLVPRGSHNGSIYGDLADFSGPYEKFEDGTIPCGQFPSGQGVIPISWLDEGGWSGVENTDTSTGGSCKEGSYCSYACQPGMSKTQWPSDQPSDGRSIGGLLCKDGYLYRSNTDTDYLCEWGVDAAYVVSELSNDVAICRTDYPGTENMVIPTYVQAGDSLPLTVVDQDTYYTWQGLKTSAQYYVNNAGISVEDACVWGSSSSGVGNWAPLNFGAGSSDGVAYLSLIPNPNNGNALNFNVKIVAADDSSTVNGECIYENGSFSGGSDGCTVSVTAGKAKFVLYN
# Assays:
# Test in all cases: glycan array binding signal (z-score within array); higher = stronger binding
# Settings in all cases: glycan notation: IUPAC condensed, linker removed
# [1] = molecular target: GlcNAc(b1-3)Gal(b1-4)GlcNAc(b1-3)Gal(b1-4)GlcNAc(b1-2)Man(a1-3)[GlcNAc(b1-3)Gal(b1-4)GlcNAc(b1-3)Gal(b1-4)GlcNAc(b1-2)Man(a1-6)]Man(b1-4)GlcNAc(b1-4)GlcNAc
# In short: (§1)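 Glycan array data were curated from 3228 arrays in the Consortium for Functional Glycomics database and kept only where the protein sequence was available. Glycan names were converted to IUPAC-condensed notation, and columns mapping to the same glycan were averaged. The binding signal is a within-array Z-score, averaged across arrays of the same protein sequence at different concentrations or buffers and across linkers. Negative Z-scores can be read as non-binding.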
# [2] = molecular target: GlcNAc(b1-3)Gal(b1-4)GlcNAc(b1-3)Gal(b1-4)GlcNAc(b1-2)Man(a1-3)[GlcNAc(b1-3)Gal(b1-4)GlcNAc(b1-3)Gal(b1-4)GlcNAc(b1-2)Man(a1-6)]Man(b1-4)GlcNAc(b1-4)[Fuc(a1-6)]GlcNAc
# In short: as §1
# [3] = molecular target: GlcNAc(b1-3)Gal(b1-4)GlcNAc(b1-3)Gal(b1-4)GlcNAc(b1-2)[GlcNAc(b1-3)Gal(b1-4)GlcNAc(b1-3)Gal(b1-4)GlcNAc(b1-6)]Man(a1-6)[GlcNAc(b1-3)Gal(b1-4)GlcNAc(b1-3)Gal(b1-4)GlcNAc(b1-2)Man(a1-3)]Man(b1-4)GlcNAc(b1-4)[Fuc(a1-6)]GlcNAc
# In short: as §1
# [4] = molecular target: GlcNAc(b1-3)Gal(b1-4)GlcNAc(b1-3)Gal(b1-4)GlcNAc(b1-3)Gal(b1-4)GlcNAc(b1-2)Man(a1-3)[GlcNAc(b1-3)Gal(b1-4)GlcNAc(b1-3)Gal(b1-4)GlcNAc(b1-3)Gal(b1-4)GlcNAc(b1-2)Man(a1-6)]Man(b1-4)GlcNAc(b1-4)GlcNAc
# In short: as §1
# [5] = molecular target: GlcNAc(b1-3)Gal(b1-4)GlcNAc(b1-3)Gal(b1-4)GlcNAc(b1-3)Gal(b1-4)GlcNAc(b1-2)Man(a1-3)[GlcNAc(b1-3)Gal(b1-4)GlcNAc(b1-3)Gal(b1-4)GlcNAc(b1-3)Gal(b1-4)GlcNAc(b1-2)Man(a1-6)]Man(b1-4)GlcNAc(b1-4)[Fuc(a1-6)]GlcNAc
# In short: as §1
# [6] = molecular target: GlcNAc(b1-3)Gal(b1-4)GlcNAc(b1-3)Gal(b1-4)GlcNAc(b1-3)Gal(b1-4)GlcNAc(b1-2)[GlcNAc(b1-3)Gal(b1-4)GlcNAc(b1-3)Gal(b1-4)GlcNAc(b1-3)Gal(b1-4)GlcNAc(b1-6)]Man(a1-6)[GlcNAc(b1-3)Gal(b1-4)GlcNAc(b1-3)Gal(b1-4)GlcNAc(b1-3)Gal(b1-4)GlcNAc(b1-2)Man(a1-3)]Man(b1-4)GlcNAc(b1-4)[Fuc(a1-6)]GlcNAc
# In short: as §1
# [7] = molecular target: GlcNAc(b1-3)Gal(b1-4)GlcNAc(b1-3)Gal(b1-4)GlcNAc(b1-3)Gal(b1-4)GlcNAc(b1-3)Gal(b1-4)GlcNAc(b1-2)Man(a1-3)[GlcNAc(b1-3)Gal(b1-4)GlcNAc(b1-3)Gal(b1-4)GlcNAc(b1-3)Gal(b1-4)GlcNAc(b1-3)Gal(b1-4)GlcNAc(b1-2)Man(a1-6)]Man(b1-4)GlcNAc(b1-4)GlcNAc
# In short: as §1
# [8] = molecular target: GlcNAc(b1-3)Gal(b1-4)GlcNAc(b1-3)Gal(b1-4)GlcNAc(b1-3)Gal(b1-4)GlcNAc(b1-3)Gal(b1-4)GlcNAc(b1-2)Man(a1-3)[GlcNAc(b1-3)Gal(b1-4)GlcNAc(b1-3)Gal(b1-4)GlcNAc(b1-3)Gal(b1-4)GlcNAc(b1-3)Gal(b1-4)GlcNAc(b1-2)Man(a1-6)]Man(b1-4)GlcNAc(b1-4)[Fuc(a1-6)]GlcNAc
# In short: as §1
# [9] = molecular target: GlcNAc(b1-3)Gal(b1-4)GlcNAc(b1-3)Gal(b1-4)GlcNAc(b1-3)Gal(b1-4)GlcNAc(b1-3)Gal(b1-4)GlcNAc(b1-2)[GlcNAc(b1-3)Gal(b1-4)GlcNAc(b1-3)Gal(b1-4)GlcNAc(b1-3)Gal(b1-4)GlcNAc(b1-3)Gal(b1-4)GlcNAc(b1-6)]Man(a1-6)[GlcNAc(b1-3)Gal(b1-4)GlcNAc(b1-3)Gal(b1-4)GlcNAc(b1-3)Gal(b1-4)GlcNAc(b1-3)Gal(b1-4)GlcNAc(b1-2)Man(a1-3)]Man(b1-4)GlcNAc(b1-4)[Fuc(a1-6)]GlcNAc
# In short: as §1
# [10] = molecular target: GlcNAc(b1-3)Gal(b1-4)GlcNAc(b1-3)Gal(b1-4)GlcNAc(b1-3)GalNAc
# In short: as §1
# [11] = molecular target: GlcNAc(b1-3)Gal(b1-4)GlcNAc(b1-3)GalNAc
# In short: as §1
# [12] = molecular target: GlcNAc(b1-3)Gal(b1-4)GlcNAc(b1-3)[GlcNAc(b1-3)Gal(b1-4)GlcNAc(b1-3)]GalNAc
# In short: as §1
# [13] = molecular target: GlcNAc(b1-3)Gal(b1-4)GlcNAc(b1-6)[Gal(b1-3)]GalNAc
# In short: as §1
# [14] = molecular target: GlcNAc(b1-3)Gal(b1-4)GlcNAc(b1-6)[GlcNAc(b1-3)Gal(b1-3)]GalNAc
# In short: as §1
# [15] = molecular target: GlcNAc(b1-3)Gal(b1-4)GlcNAc(b1-6)[GlcNAc(b1-3)]Gal(b1-4)GlcNAc
# In short: as §1
# GlcNAc(b1-3)GalNAc = molecular target: GlcNAc(b1-3)GalNAc
# In short: as §1
# GlcNAc(b1-3)Man = molecular target: GlcNAc(b1-3)Man
# In short: as §1
# [16] = molecular target: GlcNAc(b1-3)[GlcNAc(b1-4)][GlcNAc(b1-6)]GlcNAc
# In short: as §1
# [17] = molecular target: GlcNAc(b1-3)[GlcNAc(b1-6)]Gal(b1-4)GlcNAc
# In short: as §1
# [18] = molecular target: GlcNAc(b1-3)[GlcNAc(b1-6)]GalNAc
# In short: as §1
# [19] = molecular target: GlcNAc(b1-4)Gal(b1-4)GlcNAc
# In short: as §1
# GlcNAc(b1-4)GlcNAc = molecular target: GlcNAc(b1-4)GlcNAc
# In short: as §1
# [20] = molecular target: GlcNAc(b1-4)GlcNAc(b1-4)GlcNAc
# In short: as §1
# [21] = molecular target: GlcNAc(b1-4)GlcNAc(b1-4)GlcNAc(b1-4)GlcNAc(b1-4)GlcNAc
# In short: as §1
# [22] = molecular target: GlcNAc(b1-4)GlcNAc(b1-4)GlcNAc(b1-4)GlcNAc(b1-4)GlcNAc(b1-4)GlcNAc
# In short: as §1
# [23] = molecular target: GlcNAc(b1-4)[GlcNAc(b1-6)]GalNAc
# In short: as §1
# [24] = molecular target: GlcNAc(b1-6)Gal(b1-4)GlcNAc
# In short: as §1
# GlcNAc(b1-6)GalNAc = molecular target: GlcNAc(b1-6)GalNAc
# In short: as §1
# [25] = molecular target: GlcNAc6S(b1-3)Gal(b1-4)GlcNAc
# In short: as §1
# Kdn(a2-3)Gal(b1-3)GalNAc = molecular target: Kdn(a2-3)Gal(b1-3)GalNAc
# In short: as §1
# Kdn(a2-3)Gal(b1-3)GlcNAc = molecular target: Kdn(a2-3)Gal(b1-3)GlcNAc
# In short: as §1
# Kdn(a2-3)Gal(b1-4)Glc = molecular target: Kdn(a2-3)Gal(b1-4)Glc
# In short: as §1
# Kdn(a2-3)Gal(b1-4)GlcNAc = molecular target: Kdn(a2-3)Gal(b1-4)GlcNAc
# In short: as §1
# [26] = molecular target: Kdn(a2-3)Gal(b1-4)[Fuc(a1-3)]GlcNAc
# In short: as §1
# Kdn(a2-6)Gal(b1-4)GlcNAc = molecular target: Kdn(a2-6)Gal(b1-4)GlcNAc
# In short: as §1
# [27] = molecular target: Man(a1-2)Man(a1-2)Man(a1-3)Man
# In short: as §1
# [28] = molecular target: Man(a1-2)Man(a1-2)Man(a1-6)[Man(a1-3)]Man
# In short: as §1
# Man(a1-2)Man(a1-3)Man = molecular target: Man(a1-2)Man(a1-3)Man
# In short: as §1
binder,measurement,setting,value
B1,glycan array binding signal (z-score),[1],0.121
same,glycan array binding signal (z-score),[2],1.34
same,glycan array binding signal (z-score),[3],1.97
same,glycan array binding signal (z-score),[4],0.425
same,glycan array binding signal (z-score),[5],0.823
same,glycan array binding signal (z-score),[6],1.86
same,glycan array binding signal (z-score),[7],0.735
same,glycan array binding signal (z-score),[8],0.211
same,glycan array binding signal (z-score),[9],1.55
same,glycan array binding signal (z-score),[10],0.262
same,glycan array binding signal (z-score),[11],-0.515
same,glycan array binding signal (z-score),[12],1.69
same,glycan array binding signal (z-score),[13],-0.224
same,glycan array binding signal (z-score),[14],0.239
same,glycan array binding signal (z-score),[15],-0.907
same,glycan array binding signal (z-score),GlcNAc(b1-3)GalNAc,-0.748
same,glycan array binding signal (z-score),GlcNAc(b1-3)Man,-0.956
same,glycan array binding signal (z-score),[16],0.467
same,glycan array binding signal (z-score),[17],0.485
same,glycan array binding signal (z-score),[18],0.51
same,glycan array binding signal (z-score),[19],-0.156
same,glycan array binding signal (z-score),GlcNAc(b1-4)GlcNAc,-0.72
same,glycan array binding signal (z-score),[20],-0.564
same,glycan array binding signal (z-score),[21],0.226
same,glycan array binding signal (z-score),[22],-0.969
same,glycan array binding signal (z-score),[23],-0.913
same,glycan array binding signal (z-score),[24],-1.3
same,glycan array binding signal (z-score),GlcNAc(b1-6)GalNAc,-0.932
same,glycan array binding signal (z-score),[25],0.604
same,glycan array binding signal (z-score),Kdn(a2-3)Gal(b1-3)GalNAc,0.334
same,glycan array binding signal (z-score),Kdn(a2-3)Gal(b1-3)GlcNAc,0.407
same,glycan array binding signal (z-score),Kdn(a2-3)Gal(b1-4)Glc,0.11
same,glycan array binding signal (z-score),Kdn(a2-3)Gal(b1-4)GlcNAc,0.045
same,glycan array binding signal (z-score),[26],-0.428
same,glycan array binding signal (z-score),Kdn(a2-6)Gal(b1-4)GlcNAc,-0.189
same,glycan array binding signal (z-score),[27],-0.338
same,glycan array binding signal (z-score),[28],-0.614
same,glycan array binding signal (z-score),Man(a1-2)Man(a1-3)Man,0.122

# Reformatted: entries from further up
binder | measurement | setting | value
B1 | glycan array binding signal (z-score) | [1] | 0.121
same | glycan array binding signal (z-score) | [9] | 1.55
same | glycan array binding signal (z-score) | [10] | 0.262
same | glycan array binding signal (z-score) | [14] | 0.239
same | glycan array binding signal (z-score) | [18] | 0.51
same | glycan array binding signal (z-score) | [21] | 0.226
same | glycan array binding signal (z-score) | Kdn(a2-6)Gal(b1-4)GlcNAc | -0.189
